In publication PMC11784115 (Journal of Nanobiotechnology, 2025):
Strings that start with PEPTIDE1 are HELM notation: dots part the residues, brackets hold end groups and non-standard residues.

Assay: general procedure: Fmoc solid-phase peptide synthesis; 2-chlorotrityl chloride resin
Settings: whole synthesis

PEPTIDE1{[Nap].F.F.G.Y.K.C.D}$$$$V2.0
final HPLC purity: 96%
